Measured values taken from the supplement of paper PMC10849652.
The list shows a part of the results.

Amino acid sequences for entries named in this document (tags omitted). A change or cut given only in a name is not applied to a line headed by its entry.
UniProt Q9NRH1: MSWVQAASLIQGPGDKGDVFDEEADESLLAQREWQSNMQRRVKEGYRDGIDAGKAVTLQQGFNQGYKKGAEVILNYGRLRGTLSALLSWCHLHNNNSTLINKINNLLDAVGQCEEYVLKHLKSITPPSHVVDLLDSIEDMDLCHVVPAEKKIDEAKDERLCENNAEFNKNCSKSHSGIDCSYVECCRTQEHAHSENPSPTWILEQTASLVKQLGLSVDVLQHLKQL
UniProt O14980, whole entry, looked up: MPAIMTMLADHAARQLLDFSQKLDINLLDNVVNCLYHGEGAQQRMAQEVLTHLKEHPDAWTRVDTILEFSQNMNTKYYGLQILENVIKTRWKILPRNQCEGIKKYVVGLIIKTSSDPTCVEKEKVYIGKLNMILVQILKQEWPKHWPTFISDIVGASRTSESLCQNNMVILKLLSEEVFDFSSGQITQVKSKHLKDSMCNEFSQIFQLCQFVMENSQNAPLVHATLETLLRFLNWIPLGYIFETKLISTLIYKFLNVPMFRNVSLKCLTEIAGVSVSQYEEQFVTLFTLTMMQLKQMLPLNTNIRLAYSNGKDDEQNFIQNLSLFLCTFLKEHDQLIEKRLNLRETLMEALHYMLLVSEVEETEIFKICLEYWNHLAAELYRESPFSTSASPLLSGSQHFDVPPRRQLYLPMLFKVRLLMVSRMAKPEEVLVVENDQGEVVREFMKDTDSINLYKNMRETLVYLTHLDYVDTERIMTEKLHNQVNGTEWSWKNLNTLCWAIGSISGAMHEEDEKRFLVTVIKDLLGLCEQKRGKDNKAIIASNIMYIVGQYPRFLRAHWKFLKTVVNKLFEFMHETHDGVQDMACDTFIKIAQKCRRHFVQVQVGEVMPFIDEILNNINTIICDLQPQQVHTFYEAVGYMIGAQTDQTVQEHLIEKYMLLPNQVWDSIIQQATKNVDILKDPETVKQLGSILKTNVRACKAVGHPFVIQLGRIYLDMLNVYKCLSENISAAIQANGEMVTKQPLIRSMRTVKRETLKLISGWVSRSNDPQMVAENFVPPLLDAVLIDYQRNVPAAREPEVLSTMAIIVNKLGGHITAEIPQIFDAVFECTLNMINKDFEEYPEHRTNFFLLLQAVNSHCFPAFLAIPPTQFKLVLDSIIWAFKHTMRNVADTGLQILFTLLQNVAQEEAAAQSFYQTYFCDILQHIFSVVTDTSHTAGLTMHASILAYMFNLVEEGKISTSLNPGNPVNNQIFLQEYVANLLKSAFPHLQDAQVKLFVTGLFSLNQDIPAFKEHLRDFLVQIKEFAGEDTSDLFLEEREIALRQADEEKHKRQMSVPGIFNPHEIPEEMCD
UniProt Q96K21: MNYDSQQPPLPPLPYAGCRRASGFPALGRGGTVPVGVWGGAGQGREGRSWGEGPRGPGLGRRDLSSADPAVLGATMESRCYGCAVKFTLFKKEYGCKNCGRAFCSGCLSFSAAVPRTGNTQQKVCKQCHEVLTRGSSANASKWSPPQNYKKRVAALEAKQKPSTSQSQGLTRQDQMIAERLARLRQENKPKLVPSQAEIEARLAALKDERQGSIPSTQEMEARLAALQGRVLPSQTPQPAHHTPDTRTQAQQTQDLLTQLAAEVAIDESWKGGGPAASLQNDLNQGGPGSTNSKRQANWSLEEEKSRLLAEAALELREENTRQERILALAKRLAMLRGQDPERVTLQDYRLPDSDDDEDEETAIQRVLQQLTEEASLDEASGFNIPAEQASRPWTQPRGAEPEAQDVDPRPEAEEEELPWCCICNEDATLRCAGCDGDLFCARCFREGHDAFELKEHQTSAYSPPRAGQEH
UniProt Q96GY0: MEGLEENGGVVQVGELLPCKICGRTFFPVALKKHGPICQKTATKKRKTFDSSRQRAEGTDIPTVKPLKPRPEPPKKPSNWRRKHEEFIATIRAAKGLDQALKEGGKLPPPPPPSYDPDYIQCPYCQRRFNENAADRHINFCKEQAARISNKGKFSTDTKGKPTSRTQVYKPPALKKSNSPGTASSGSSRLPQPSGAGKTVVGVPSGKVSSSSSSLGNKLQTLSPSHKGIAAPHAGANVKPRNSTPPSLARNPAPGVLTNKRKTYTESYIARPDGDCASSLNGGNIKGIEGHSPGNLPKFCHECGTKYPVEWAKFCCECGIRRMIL
UniProt P12956: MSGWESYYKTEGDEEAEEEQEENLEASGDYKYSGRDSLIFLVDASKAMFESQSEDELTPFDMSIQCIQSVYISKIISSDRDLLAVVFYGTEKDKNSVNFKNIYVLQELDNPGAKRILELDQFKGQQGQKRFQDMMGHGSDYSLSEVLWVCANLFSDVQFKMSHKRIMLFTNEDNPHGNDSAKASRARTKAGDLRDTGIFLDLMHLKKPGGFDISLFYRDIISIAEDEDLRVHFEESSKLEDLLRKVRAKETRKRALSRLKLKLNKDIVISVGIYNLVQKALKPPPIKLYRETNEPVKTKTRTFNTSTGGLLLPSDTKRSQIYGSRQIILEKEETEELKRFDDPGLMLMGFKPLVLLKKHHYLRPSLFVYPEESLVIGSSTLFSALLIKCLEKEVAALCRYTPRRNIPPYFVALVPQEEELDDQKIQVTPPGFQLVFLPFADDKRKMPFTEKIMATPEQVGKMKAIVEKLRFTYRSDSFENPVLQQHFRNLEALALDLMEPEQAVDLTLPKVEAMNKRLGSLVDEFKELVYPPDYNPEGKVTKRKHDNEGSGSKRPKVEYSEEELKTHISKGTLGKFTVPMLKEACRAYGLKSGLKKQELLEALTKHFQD
UniProt Q9BQ24: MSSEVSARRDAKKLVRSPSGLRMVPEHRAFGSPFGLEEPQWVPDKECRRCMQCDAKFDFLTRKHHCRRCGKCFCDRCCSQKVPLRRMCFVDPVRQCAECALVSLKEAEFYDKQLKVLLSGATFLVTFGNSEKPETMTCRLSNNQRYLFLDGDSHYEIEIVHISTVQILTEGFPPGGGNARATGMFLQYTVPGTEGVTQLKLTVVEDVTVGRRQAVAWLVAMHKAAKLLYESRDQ
UniProt Q5VVQ6: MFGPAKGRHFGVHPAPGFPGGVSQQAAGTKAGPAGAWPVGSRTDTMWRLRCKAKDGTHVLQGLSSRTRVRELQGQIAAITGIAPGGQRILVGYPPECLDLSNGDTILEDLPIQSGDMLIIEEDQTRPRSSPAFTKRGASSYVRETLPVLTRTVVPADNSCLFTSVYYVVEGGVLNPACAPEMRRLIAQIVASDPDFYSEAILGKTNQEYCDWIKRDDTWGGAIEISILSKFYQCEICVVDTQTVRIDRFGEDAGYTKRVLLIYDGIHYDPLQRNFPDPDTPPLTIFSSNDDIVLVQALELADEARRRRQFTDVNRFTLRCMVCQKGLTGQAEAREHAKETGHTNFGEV
UniProt Q9Y5A9: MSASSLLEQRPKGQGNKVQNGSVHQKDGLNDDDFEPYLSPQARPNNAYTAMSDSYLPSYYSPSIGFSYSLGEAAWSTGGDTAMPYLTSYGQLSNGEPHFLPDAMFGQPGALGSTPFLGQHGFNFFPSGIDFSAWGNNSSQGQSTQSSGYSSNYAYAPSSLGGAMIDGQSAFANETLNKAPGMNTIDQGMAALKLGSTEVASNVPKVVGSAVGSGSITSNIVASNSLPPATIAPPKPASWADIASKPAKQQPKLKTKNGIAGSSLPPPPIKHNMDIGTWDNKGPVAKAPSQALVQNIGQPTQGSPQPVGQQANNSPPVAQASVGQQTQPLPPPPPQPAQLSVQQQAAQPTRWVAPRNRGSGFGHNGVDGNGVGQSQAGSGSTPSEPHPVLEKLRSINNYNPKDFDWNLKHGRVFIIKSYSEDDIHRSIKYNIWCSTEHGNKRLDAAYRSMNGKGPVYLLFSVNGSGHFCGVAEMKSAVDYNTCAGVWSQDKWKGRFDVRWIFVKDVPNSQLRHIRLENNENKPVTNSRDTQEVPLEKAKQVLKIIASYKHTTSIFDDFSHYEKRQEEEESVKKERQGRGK
UniProt Q9GZM5: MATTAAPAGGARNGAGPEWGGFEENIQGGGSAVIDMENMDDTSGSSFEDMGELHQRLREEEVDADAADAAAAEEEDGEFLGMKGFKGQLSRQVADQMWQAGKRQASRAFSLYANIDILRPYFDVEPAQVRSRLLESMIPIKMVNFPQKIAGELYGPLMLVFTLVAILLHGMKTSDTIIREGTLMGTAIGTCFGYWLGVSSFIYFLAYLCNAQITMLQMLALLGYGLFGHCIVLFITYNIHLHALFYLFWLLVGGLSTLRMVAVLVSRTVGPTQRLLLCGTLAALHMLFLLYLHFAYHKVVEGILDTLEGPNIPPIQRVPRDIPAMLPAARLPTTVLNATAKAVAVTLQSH
UniProt Q8TBK6: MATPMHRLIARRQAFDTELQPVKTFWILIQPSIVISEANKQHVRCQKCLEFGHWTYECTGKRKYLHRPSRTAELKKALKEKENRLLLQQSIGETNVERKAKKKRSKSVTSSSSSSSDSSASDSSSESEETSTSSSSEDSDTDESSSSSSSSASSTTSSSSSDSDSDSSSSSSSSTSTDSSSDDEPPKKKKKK
UniProt O15156: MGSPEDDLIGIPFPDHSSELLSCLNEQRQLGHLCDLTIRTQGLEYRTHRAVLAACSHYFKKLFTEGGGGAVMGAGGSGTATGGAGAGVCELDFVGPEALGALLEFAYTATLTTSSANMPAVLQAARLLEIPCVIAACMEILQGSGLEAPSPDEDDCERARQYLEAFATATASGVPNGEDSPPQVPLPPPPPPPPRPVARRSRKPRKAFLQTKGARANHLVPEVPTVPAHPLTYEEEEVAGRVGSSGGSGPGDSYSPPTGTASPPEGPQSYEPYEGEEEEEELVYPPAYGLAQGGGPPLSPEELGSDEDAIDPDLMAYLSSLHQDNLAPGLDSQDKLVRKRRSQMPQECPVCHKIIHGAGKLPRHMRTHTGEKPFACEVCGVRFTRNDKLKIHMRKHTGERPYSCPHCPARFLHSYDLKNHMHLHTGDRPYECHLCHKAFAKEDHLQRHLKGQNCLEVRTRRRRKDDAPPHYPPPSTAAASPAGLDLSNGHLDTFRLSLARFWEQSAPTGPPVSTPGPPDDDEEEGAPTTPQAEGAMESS
UniProt Q5W0Z9: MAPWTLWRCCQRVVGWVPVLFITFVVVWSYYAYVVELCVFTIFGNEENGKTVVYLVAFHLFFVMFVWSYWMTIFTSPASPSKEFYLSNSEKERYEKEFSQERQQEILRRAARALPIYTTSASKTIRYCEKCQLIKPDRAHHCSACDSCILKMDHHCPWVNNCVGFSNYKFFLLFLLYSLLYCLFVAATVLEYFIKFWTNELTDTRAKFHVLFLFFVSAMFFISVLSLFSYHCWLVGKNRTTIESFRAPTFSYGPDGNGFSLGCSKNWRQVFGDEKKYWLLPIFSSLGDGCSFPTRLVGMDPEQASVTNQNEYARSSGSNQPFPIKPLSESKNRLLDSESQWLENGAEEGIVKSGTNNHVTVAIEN
UniProt O76080: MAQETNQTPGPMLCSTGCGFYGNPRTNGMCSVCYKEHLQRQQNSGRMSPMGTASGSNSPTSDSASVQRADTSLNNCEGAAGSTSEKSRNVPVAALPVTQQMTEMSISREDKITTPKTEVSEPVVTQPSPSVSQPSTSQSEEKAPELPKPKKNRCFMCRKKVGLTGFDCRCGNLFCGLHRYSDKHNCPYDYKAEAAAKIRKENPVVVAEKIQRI
UniProt P27348: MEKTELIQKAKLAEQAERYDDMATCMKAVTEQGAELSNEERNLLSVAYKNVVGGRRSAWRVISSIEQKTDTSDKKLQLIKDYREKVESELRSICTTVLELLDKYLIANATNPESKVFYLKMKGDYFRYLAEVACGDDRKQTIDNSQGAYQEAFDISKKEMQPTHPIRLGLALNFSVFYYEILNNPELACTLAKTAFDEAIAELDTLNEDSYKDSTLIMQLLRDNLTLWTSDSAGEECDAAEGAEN
UniProt Q96EC8: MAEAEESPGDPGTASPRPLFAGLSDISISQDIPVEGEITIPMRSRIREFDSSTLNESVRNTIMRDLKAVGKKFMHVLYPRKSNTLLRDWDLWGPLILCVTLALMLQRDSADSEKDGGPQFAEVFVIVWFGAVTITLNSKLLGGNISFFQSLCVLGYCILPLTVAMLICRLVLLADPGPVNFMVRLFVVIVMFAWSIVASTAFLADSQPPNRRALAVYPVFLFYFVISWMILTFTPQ
UniProt P62699: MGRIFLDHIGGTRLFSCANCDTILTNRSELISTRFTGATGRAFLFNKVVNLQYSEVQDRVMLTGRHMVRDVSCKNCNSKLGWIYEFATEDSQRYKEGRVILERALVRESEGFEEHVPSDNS
UniProt P61981: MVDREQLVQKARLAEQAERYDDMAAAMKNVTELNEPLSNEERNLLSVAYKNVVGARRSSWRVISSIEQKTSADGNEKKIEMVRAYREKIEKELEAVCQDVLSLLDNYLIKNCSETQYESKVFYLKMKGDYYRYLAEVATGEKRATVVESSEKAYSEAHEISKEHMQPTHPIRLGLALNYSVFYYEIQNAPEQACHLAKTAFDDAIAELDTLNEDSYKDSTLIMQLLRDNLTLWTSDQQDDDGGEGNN
UniProt O15498: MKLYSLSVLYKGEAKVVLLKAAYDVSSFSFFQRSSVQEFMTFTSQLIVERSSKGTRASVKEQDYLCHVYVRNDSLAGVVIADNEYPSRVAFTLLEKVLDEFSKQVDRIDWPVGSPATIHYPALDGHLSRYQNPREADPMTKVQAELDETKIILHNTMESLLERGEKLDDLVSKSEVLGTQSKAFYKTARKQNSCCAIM

These targets were tested with CC1=C2C(=CC=C1)N=C(N(C2=O)C3=CC=CC=C3C)CN4C=NC5=C(N=CN=C54)N (assay: log2 fold change, soluble protein after heating vs DMSO (PISA); higher = thermal stabilisation; K562 lysate, 10 uM; active = over 0.2 and 3.5 SD of the protein, either way, in both replicates (recomputed)).
How it was run: (§1)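 Thermal stability, expressed as log-two fold change relative to solvent controls, is given from duplicates. Crude K562 extract in PBS pH 7.4 with 1 mM MgCl2, at 1 mg/mL protein, was treated with 10 μM compound for 30 min and heated in aliquots for 3 min across 48°C-58°C. After pooling, adjustment to 0.5% NP-40 at 4°C and centrifugation at 21,000xg for 90 min, supernatant protein was measured by TMTpro 16plex LC-MS/MS with channel sums equalised.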

How did the log2 fold change turn out when XRCC1 (UniProt P18887) was run?
The log2 fold change was inactive: 0.002.

Which log2 fold change does the source give for YAE1 (UniProt Q9NRH1) here?
The log2 fold change was inactive: -0.063.

For XPO1 (UniProt O14980), which log2 fold change is on record?
The log2 fold change was inactive: 0.012.

ZFYVE19 (UniProt Q96K21) was tested. Which log2 fold change did it give?
Its log2 fold change is inactive: 0.012.

YIPF4 (UniProt Q9BSR8) was tested. Which log2 fold change did it give?
The log2 fold change was inactive: -0.027.

With ZFYVE28 (UniProt Q9HCC9) as the target, how does the log2 fold change read?
Its log2 fold change is inactive: 0.048.

How did the log2 fold change turn out when ZC2HC1A (UniProt Q96GY0) was run?
The log2 fold change was inactive: -0.018.

Which log2 fold change does the source give for XPO5 (UniProt Q9HAV4) here?
Its log2 fold change is inactive: 0.002.

ZFC3H1 (UniProt O60293) was tested. Which log2 fold change did it give?
The log2 fold change was inactive: 0.069.

Which log2 fold change does the source give for XRCC6 (UniProt P12956) here?
Its log2 fold change is inactive: 0.009.

With ZFYVE21 isoform 2 (UniProt Q9BQ24) as the target, how does the log2 fold change read?
Its log2 fold change is inactive: -0.065.

How did the log2 fold change turn out when YOD1 (UniProt Q5VVQ6) was run?
The log2 fold change was inactive: 0.019.

With YTHDF2 (UniProt Q9Y5A9) as the target, how does the log2 fold change read?
Its log2 fold change is inactive: -0.037.

The targets below were run with Cc1sc2c(c1C)C(c1ccc(Cl)cc1)=N[C@@H](CC(=O)OC(C)(C)C)c1nnc(C)n1-2 in the same assay as above.
How it was run: as §1

With YIPF3 (UniProt Q9GZM5) as the target, how does the log2 fold change read?
The log2 fold change was inactive: -0.023.

How did the log2 fold change turn out when ZFR (UniProt Q96KR1) was run?
Its log2 fold change is inactive: -0.014.

Which log2 fold change does the source give for ZCCHC10 (UniProt Q8TBK6) here?
Its log2 fold change is inactive: -0.252.

With ZBTB7B isoform 2 (UniProt O15156) as the target, how does the log2 fold change read?
Its log2 fold change is inactive: -0.011.

ZC3H18 (UniProt E7ERS3) was tested. Which log2 fold change did it give?
Its log2 fold change is inactive: 0.002.

How did the log2 fold change turn out when YTHDC1 (UniProt Q96MU7) was run?
The log2 fold change was inactive: -0.103.

With ZDHHC20 (UniProt Q5W0Z9) as the target, how does the log2 fold change read?
Its log2 fold change is inactive: 0.055.

With XPO6 (UniProt Q96QU8) as the target, how does the log2 fold change read?
Its log2 fold change is inactive: 0.039.

With ZDHHC3 isoform 2 (UniProt Q9NYG2) as the target, how does the log2 fold change read?
The log2 fold change was inactive: -0.025.

Which log2 fold change does the source give for ZC3HC1 (UniProt Q86WB0) here?
Its log2 fold change is inactive: 0.019.

For ZCCHC3 (UniProt Q9NUD5), which log2 fold change is on record?
The log2 fold change was inactive: -0.013.

For ZEB1 isoform 2 (UniProt P37275), which log2 fold change is on record?
Its log2 fold change is inactive: -0.083.

With ZBTB21 (UniProt Q9ULJ3) as the target, how does the log2 fold change read?
Its log2 fold change is inactive: 0.062.

Which log2 fold change does the source give for ZFAND5 (UniProt O76080) here?
The log2 fold change was inactive: -0.027.

How did the log2 fold change turn out when YWHAQ (UniProt P27348) was run?
The log2 fold change was inactive: 0.076.

Which log2 fold change does the source give for ZBTB10 (UniProt Q96DT7) here?
Its log2 fold change is inactive: -0.091.

How did the log2 fold change turn out when YIPF6 (UniProt Q96EC8) was run?
The log2 fold change was inactive: -0.07.

YES1 (UniProt P07947) was tested. Which log2 fold change did it give?
Its log2 fold change is inactive: -0.045.

Which log2 fold change does the source give for YPEL5 (UniProt P62699) here?
Its log2 fold change is inactive: 0.059.

For XXYLT1 (UniProt Q8NBI6), which log2 fold change is on record?
The log2 fold change was inactive: 0.008.

YWHAG (UniProt P61981) was tested. Which log2 fold change did it give?
The log2 fold change was inactive: 0.018.

With YBX1 (UniProt P67809) as the target, how does the log2 fold change read?
The log2 fold change was inactive: -0.044.

With YKT6 (UniProt O15498) as the target, how does the log2 fold change read?
Its log2 fold change is inactive: -0.009.

ZFP36L2 (UniProt P47974) was tested. Which log2 fold change did it give?
The log2 fold change was inactive: -0.192.

For XPNPEP3 (UniProt Q9NQH7), which log2 fold change is on record?
Its log2 fold change is inactive: 0.

For XRCC1 (UniProt P18887), which log2 fold change is on record?
The log2 fold change was inactive: 0.029.

For YAE1 (UniProt Q9NRH1), which log2 fold change is on record?
The log2 fold change was inactive: -0.015.

XPO1 (UniProt O14980) was tested. Which log2 fold change did it give?
The log2 fold change was inactive: 0.008.

For ZFYVE19 (UniProt Q96K21), which log2 fold change is on record?
Its log2 fold change is inactive: -0.032.

YIPF4 (UniProt Q9BSR8) was tested. Which log2 fold change did it give?
Its log2 fold change is inactive: -0.075.

Which log2 fold change does the source give for ZFYVE28 (UniProt Q9HCC9) here?
Its log2 fold change is inactive: -0.086.

For ZC2HC1A (UniProt Q96GY0), which log2 fold change is on record?
Its log2 fold change is inactive: 0.106.

With XPO5 (UniProt Q9HAV4) as the target, how does the log2 fold change read?
The log2 fold change was inactive: -0.021.

How did the log2 fold change turn out when ZFC3H1 (UniProt O60293) was run?
The log2 fold change was inactive: 0.017.

Which log2 fold change does the source give for XRCC6 (UniProt P12956) here?
Its log2 fold change is inactive: 0.01.

With ZFYVE21 isoform 2 (UniProt Q9BQ24) as the target, how does the log2 fold change read?
Its log2 fold change is inactive: -0.076.

With YOD1 (UniProt Q5VVQ6) as the target, how does the log2 fold change read?
The log2 fold change was inactive: -0.039.

YTHDF2 (UniProt Q9Y5A9) was tested. Which log2 fold change did it give?
The log2 fold change was inactive: 0.014.
